Test results published in PubChem BioAssay (NCATS).
“And” between values parts separate entries of the source, which are not always exact repeats. Equal entries are not always repeated. This list was built around the results that the source calls inconclusive (neither active nor inactive); the mix of calls is not that of the screen. Potencies of inconclusive entries are doubtful fits and often do not repeat. The source made the active and inactive calls. Calls come from the whole dose curve; as a rule, active = well fitted cell-killing curve with a large enough effect; inconclusive = small, poorly fitted or top-dose-only effect; inactive = flat fitted curve, though single readings scatter.

test: Identifying Small Molecule Inhibitors of Pancreatic Cancer Stem Cells (A278, Adherent) (AID 1259361); conditions: viability (% of control): at 46.1 µM (top of the series) unless noted;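 note: viability read after 48 h compound exposure; nearly all actives have a fitted effect of over 35% in size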
Summary of the method: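 Luminescent ATP readout (CellTiter-Glo) quantifies surviving cells after a 48 h drug incubation. Normalization uses DMSO wells as no inhibition and media-only wells as full inhibition; bortezomib served as positive control.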

Compound | IC50 (viability decrease)
O=C(NC1CCNCC1)c1[nH]ncc1NC(=O)c1c(Cl)cccc1Cl | inconclusive: 264 nM [cytotoxic, full curve] and inconclusive: 590 nM [cytotoxic, full curve]
Cc1ccc(Nc2nccc(N(C)c3ccc4c(C)n(C)nc4c3)n2)cc1S(N)(=O)=O | inconclusive: 18.7 µM [cytotoxic, partial curve]
Cc1csc(-c2nnc(Nc3ccc(Oc4ncccc4-c4ccnc(N)n4)cc3)c3ccccc23)c1 | inconclusive: 23.5 µM [cytotoxic, single point]
CCn1c(-c2nonc2N)nc2c(C#CC(C)(C)O)ncc(OC[C@H]3CCCNC3)c21 | inconclusive: 3.32 µM [cytotoxic, partial curve]
CC(=O)c1c(C)c2cnc(Nc3ccc(N4CCNCC4)cn3)nc2n(C2CCCC2)c1=O | inconclusive: 18.7 µM [cytotoxic, partial curve]
Cc1ccc(NC(=O)c2cccc(C(C)(C)C#N)c2)cc1Nc1ccc2ncn(C)c(=O)c2c1 | inconclusive: 2.35 µM [cytotoxic, partial curve]
O=c1[nH]c(-c2ccc(C(F)(F)F)cc2)nc2c1CSCC2 | inactive
O=C(O)CCc1ccc(NCc2cccc(Oc3ccccc3)c2)cc1 | inactive
Cc1cn(-c2cc(NC(=O)c3ccc(C)c(Nc4nccc(-c5cccnc5)n4)c3)cc(C(F)(F)F)c2)cn1 | inconclusive: 5.26 µM [cytotoxic, partial curve, poor fit]
NC(=O)C1CCCc2c1[nH]c1ccc(Cl)cc21 (stereo not given) | inconclusive: 20.9 µM [cytotoxic, partial curve, poor fit]

Exported as labelled records: entries from further up
Cc1csc(-c2nnc(Nc3ccc(Oc4ncccc4-c4ccnc(N)n4)cc3)c3ccccc23)c1
  IC50 (viability decrease): inconclusive: 23.5 µM [cytotoxic, single point]
CC(=O)c1c(C)c2cnc(Nc3ccc(N4CCNCC4)cn3)nc2n(C2CCCC2)c1=O
  IC50 (viability decrease): inconclusive: 18.7 µM [cytotoxic, partial curve]
